Drawing on PubChem BioAssay AID662 (National Center for Advancing Translational Sciences (NCATS), 2007), this text covers AC50 for 52 compounds.

Structures are written as SMILES. Values joined by “and” are separate entries in the source; they are usually repeats but may differ in a detail not shown here. Equal values may be shown once. The list shows a part of the results. Further columns of the screen follow, without active or inactive calls. Most of these compounds were active or inconclusive in the main read-out, so they are no random draw. The note in brackets gives the kind of curve behind each potency; many fits are weak.

The assay is described as follows: Cell signaling CRE-BLA (Fsk stim). The note with it: CHO CRE-bla reporter (cAMP response element driving beta-lactamase), forskolin EC10, beta-lactamase ratio; measured here: 460 nm blue channel. Put shortly:
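Using CellSensor CRE-bla CHO cells in Opti-MEM with 0.5% dialyzed FBS, compounds were titrated with EC10 NKH 477 for 3 h at 37 °C. CCF4 ratio (460/530 nm) gave %Activity; AC50 derived.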
By AC50 is commonly meant the midpoint of the concentration-response curve, whichever way the signal moves. Take `CC(=O)c1c(O)n(C2CCCCCC2)c(=O)[nH]c1=O`: the half-maximal activity concentration (AC50) is 25.1 µM [falling, single point]. The figure for `Cc1nc2cc(C(F)(F)F)ccc2n1C1CCN(Cc2nnnn2Cc2cccs2)CC1` is 15.8 µM [rising, partial curve]; for `COc1ccc(-n2c(=O)[nH]c3ccccc3c2=O)c(OC)c1` it is 20 µM [falling, single point].

For the compound `CCOC(=O)C1=C(N)OC(C)=C(C(=O)OCCOC)C12C(=O)Nc1ccccc12` (configuration not stated), the concentration at half-maximal activity (AC50) was 0.0794 µM [falling, full curve]. The figure for `O=C1NC(=O)C2(Cc3ccccc3N3CCCC32)C(=O)N1c1ccccc1` (configuration not stated) is 0.251 µM [rising, single point]; for `COc1cc2c(cc1O)CCN[C@H]2C` it is 25.1 µM [rising, partial curve].

On to `O=C(O)CN1C(=O)CN=C(c2ccccn2)c2cc(Cl)ccc21`, for which the half-maximal activity concentration (AC50) is 5.01 µM [rising, single point]. The figure for `CC(C)OCCCNC(=O)c1c(N)n(Cc2cccs2)c2nc3ccccc3nc12` is 10 µM [rising, partial curve]; for `Cc1nc2ncnn2c(C)c1CCC(=O)N1CCC2(CC1)OCCO2` it is 0.00398 µM [falling, full curve, poor fit]; for `CCC(C)NC(=O)c1c(N)n(CC2CCCO2)c2nc3ccccc3nc12` (configuration not stated) it is 12.6 µM [rising, partial curve].

For the compound `COC(=O)C(C)Oc1cc(C)cc2oc(=O)c3c(c12)CCCC3` (configuration not stated), the AC50 was 10 µM [rising, partial curve].

Consider `COc1ccc(CCNC(=O)c2c(N)n(CCN3CCOCC3)c3nc4ccccc4nc23)cc1`, for which the half-maximal activity concentration (AC50) was 5.01 µM [rising, partial curve].

As to `COC(=O)C1C2c3ccccc3OC1(C)N=c1s/c(=C/c3cn(C)nc3C)c(=O)n12` (configuration not stated), the concentration at half-maximal activity (AC50) is 25.1 µM [rising, single point]. For `Cn1c(C(=O)N2CCC(C(=O)N3CCC4(CC3)OCCO4)CC2)cc2sccc21`, the concentration at half-maximal activity (AC50) was 2.51 µM [rising, partial curve]. The figure for `CCn1cnc2c(Nc3cccc(Cl)c3)nc(N[C@@H]3CCCC[C@H]3N)nc21` is 10 µM [falling, partial curve]; for `CC1CCCCN1CC(=O)c1ccc2cc[nH]c2c1` (configuration not stated) it is 3.98 µM [falling, full curve].

Turning to `CCC(=NCCC1=CCCCC1)c1c(O)[nH]c(=O)[nH]c1=O`, the AC50 is 12.6 µM [rising, partial curve]. For `CC(C)CCn1c(N)c(C(=O)OCC2CCCO2)c2nc3ccccc3nc21` (configuration not stated), the AC50 was 3.98 µM [rising, full curve].

As for `Cn1c(O)c(C=NC2CC3CCC2(C)C3(C)C)c(=O)[nH]c1=O` (configuration not stated), the AC50 is 10 µM [rising, single point]. With `COc1ccc(C(c2ccc(OC)cc2)C(Cl)(Cl)Cl)cc1` the figure was 31.6 µM [falling, single point]. As to `CCOC(=O)c1c(C)n(Cc2ccccc2)c2ccc(OCC(O)Cn3nc(C)nc3C)cc12` (configuration not stated), the AC50 is 1 µM [rising, full curve, poor fit]. The figure for `CCOc1cc(C=O)ccc1O` is 31.6 µM [rising, partial curve]; for `Cc1cc2c(C(F)(F)F)cc(=O)oc2c2c1NCCC2` it is 3.98 µM [rising, partial curve]; for `O=c1c2ccccc2nc(-c2ccco2)n1-c1cccnc1` it is 20 µM [rising, single point]. With `CC1=NN=C(c2ccc(N)cc2)c2cc3c(cc2C1)OCO3` the figure was 31.6 µM [falling, single point]; with `CN1C(=O)C(Cc2cccc3ccccc23)C(=O)N(C)C1=O`, 0.398 µM [rising, partial curve, poor fit]. The figure for `CCCCCn1c(=O)c(C(=O)NCc2ccccn2)c(O)c2ccccc21` is 12.6 µM [rising, partial curve]. Regarding `CN1C(=O)N(C)C(=O)C2(Cc3cc(N)ccc3N3CCN(c4ccccc4F)CC32)C1=O` (configuration not stated), the AC50 is 5.01 µM [falling, partial curve]. With `C[C@]12C/C(=C/O)C(=O)C[C@@H]1CC[C@@H]1[C@@H]2CC[C@@]2(C)[C@H]1CC[C@]2(C)O` the figure was 12.6 µM [rising, partial curve]; with `CC12CCCCC1N(O)CN2O` (configuration not stated), 0.158 µM [falling, full curve]. In the case of `COc1cccc(OC)c1C1=NCC(=O)Nc2c1oc1ccc(Br)cc21`, the AC50 is 7.94 µM [rising, partial curve].

As for `CCCCCCN=C(C)c1c(O)n(CCCC)c(=O)[nH]c1=O`, the AC50 was 2 µM [rising, full curve]. The figure for `CC(C)(C)c1nc(N2CCN(C(=O)c3ccco3)CC2)c2nnn(Cc3ccccc3Cl)c2n1` is 25.1 µM [falling, single point]; for `N[C@@H](Cc1c[nH]c2ccccc12)c1nnc(SCc2ccc(Cl)cc2)o1` it is 2.51 µM [falling, full curve]. Take `COCCCn1c(N)c(C(=O)OCCOC)c2nc3ccccc3nc21`: the AC50 was 10 µM [rising, partial curve].

As for `Oc1ccc2c3c1O[C@H]1c4[nH]c5ccccc5c4C[C@]4(O)[C@H](C2)N(CC2CC2)CC[C@@]314`, the concentration at half-maximal activity (AC50) was 15.8 µM [falling, partial curve, poor fit]. With `CC(=NCCO)c1c(O)n(C2CCCCC2)c(=O)[nH]c1=O` the figure was 25.1 µM [rising, single point]; with `CC(C)(C)c1cc(O)ccc1O`, 20 µM [falling, single point] and 1 µM [falling, full curve, poor fit].

Take `COC[C@H]1OC(=O)c2coc3c2[C@@]1(C)C1=C(C3=O)[C@H]2CCC(=O)[C@@]2(C)C[C@H]1OC(C)=O`: the AC50 is 0.0316 µM [falling, full curve, poor fit]. With `O=C1N(CN2CCOCC2)c2ccccc2C1(O)c1c[nH]c2ccccc12` (configuration not stated) the figure was 25.1 µM [falling, single point]; with `CCOC(=O)c1c(N)n(Cc2ccccc2)c2nc3ccccc3nc12`, 12.6 µM [rising, partial curve]; with `CC(=O)O[C@@H]1CN2CCC1CC2`, 31.6 µM [falling, single point].

Turning to `CCC(=NCCCN1CCOCC1)c1c(O)n(Cc2ccccc2)c(=O)[nH]c1=O`, the concentration at half-maximal activity (AC50) is 1.58 µM [falling, partial curve].

Take `COC(=O)[C@H]1C(=O)[C@H](C(=O)OC)[C@@H]2CC[C@H]1N2C`: the AC50 is 3.98 µM [rising, single point].

Turning to `COCCOC(=O)c1c(N)n(Cc2ccccc2)c2nc3ccccc3nc12`, the concentration at half-maximal activity (AC50) is 12.6 µM [rising, single point]. With `Cc1ccc(C)c(NC2=NCCCS2)c1` the figure was 5.01 µM [falling, single point]; with `COC(=O)c1c(N)n(Cc2ccc(OC)cc2)c2nc3ccccc3nc12`, 10 µM [rising, partial curve]; with `NCCCP(=O)(O)CCc1ccccc1`, 25.1 µM [rising, single point]. `CC(=NCc1ccc2c(c1)OCO2)c1c(O)n(C)c(=O)n(C)c1=O`: the half-maximal activity concentration (AC50) was 1 µM [rising, full curve, poor fit]. For `COc1cc2c(cc1OC)-c1c(OC)c(OC)c(CO)c3c1[C@H](C2)N(C)CC3`, the AC50 is 2 µM [rising, partial curve, poor fit]. With `CC(=O)N1CCN(c2ccc(N=Cc3c(O)n(-c4ccc(Cl)cc4)c(=O)[nH]c3=O)cc2)CC1` the figure was 1 µM [rising, full curve, poor fit]; with `CCc1nc2ccccc2c(=O)n1-c1cccc(OC)c1`, 12.6 µM [rising, single point].
